## Primary screen of a compound library

Amino acid sequences for entries named in this document (tags omitted).
UniProt E9BF75, entry or part of it: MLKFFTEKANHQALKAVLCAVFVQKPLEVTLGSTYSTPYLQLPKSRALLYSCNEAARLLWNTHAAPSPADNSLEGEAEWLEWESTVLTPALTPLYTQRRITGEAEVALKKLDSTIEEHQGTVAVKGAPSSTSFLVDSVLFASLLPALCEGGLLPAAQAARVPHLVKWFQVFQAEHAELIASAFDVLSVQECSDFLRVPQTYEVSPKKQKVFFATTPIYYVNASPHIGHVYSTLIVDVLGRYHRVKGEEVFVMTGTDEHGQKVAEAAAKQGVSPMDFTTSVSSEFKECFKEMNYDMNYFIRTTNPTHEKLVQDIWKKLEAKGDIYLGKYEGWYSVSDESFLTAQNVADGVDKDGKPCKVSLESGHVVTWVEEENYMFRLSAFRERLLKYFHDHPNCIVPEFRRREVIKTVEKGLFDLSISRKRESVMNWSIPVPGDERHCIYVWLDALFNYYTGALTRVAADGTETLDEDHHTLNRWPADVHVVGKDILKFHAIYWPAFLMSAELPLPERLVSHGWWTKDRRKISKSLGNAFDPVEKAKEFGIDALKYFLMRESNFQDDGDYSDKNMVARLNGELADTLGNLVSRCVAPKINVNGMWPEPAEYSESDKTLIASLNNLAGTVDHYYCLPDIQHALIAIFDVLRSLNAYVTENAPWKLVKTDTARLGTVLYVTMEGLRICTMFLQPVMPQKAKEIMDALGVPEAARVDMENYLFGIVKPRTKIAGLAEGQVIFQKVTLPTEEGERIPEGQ

Mtb heat-shock: 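Assay on Mycobacterium tuberculosis, filed only as a heat shock assay from Cornell; the read-out is not stated. The concentration is filed as 10 mM, unlikely as a test dose, so the dose is not known. Direction is inferred from retests: higher values go with stronger inhibition. About 69,000 compounds were tested under these conditions; 1.4% (about 930) showed 50% or more at least once.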
Mtb growth Cornell: 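Whole-cell assay for inhibitors of Mycobacterium tuberculosis growth, labelled Cornell in the record; the read-out is not stated. The concentration is filed as 10 mM, unlikely as a test dose, so the dose is not known. The record gives no direction; compounds strong in two other growth screens of this library score well above the rest, so higher reads as stronger inhibition. Size under these conditions: about 53,000 compounds, about 900 of them at 50% or above in at least one test.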
LdMetRS: 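Primary screen of methionyl-tRNA synthetase; the read-out is not stated. Target: Methionyl-tRNA synthetase (putative), Leishmania donovani (UniProt E9BF75). The test concentration is not given. The values are filed as inhibition. About 68,000 compounds were tested under these conditions; 0.035% (about 24) showed 50% or more at least once.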

All values are in %. How 0% and 100% were set is not recorded. Most values in the screen are low, and negative values occur. Compounds were drawn at random from those tested, without regard to their results. A dash means the value is not listed here; it may have been measured.

structure	Mtb heat-shock	Mtb growth Cornell	LdMetRS
F[C@@H]1CN(Cc2cccnc2)C[C@@H]1OCc1nc2ccccc2[nH]1	-16.75%	-28.31%	9.774%
O=C(NC[C@H]1C[C@@H]2CCN1C[C@@H]2CN1CCCC1)c1ccco1	-	-	8.475%
CSc1ccc(CNCCS(=O)(=O)N2CCOCC2)cc1	4.503%	10.15%	21.07%
Cc1nccn1-c1ccc(NS(=O)(=O)c2cccnc2)cn1	-27.32%	0.7613%	13.45%
CC(C)c1cc(C(F)(F)F)n2nc(CCC(=O)O)nc2n1	-13.61%	-	3.147%
COCCCN1Cc2cccc(NC(=O)c3ccccc3C)c2C1	-7.112%	-10.58%	10.08%
COc1ccc(OC)c2c(C)cc(N(CCO)CCO)nc12	-26.38%	-24.33%	-0.2577%
N#Cc1ccnc(N2CCC(NCCN3CCOCC3)CC2)c1	2.759%	24.38%	12.59%
Cc1noc(C)c1CNCC1CCN(CC(O)c2ccccc2)CC1 (centres unmarked)	0.8964%	-	16.67%
c1ccc2oc(N3CCn4c(nnc4C4CC4)C3)nc2c1	-6.388%	-	8.791%
Cc1nc(CN(C)C2CCN(Cc3nc4ccccc4n3C)C2)no1 (centres unmarked)	69.83%	-14.35%	23.99%
Cc1cc(C)nc(N2CC[C@H](Oc3ccccc3F)[C@@H](O)CC2)n1	-3.959%	11.75%	8.721%
CC(C)N1CC(C(=O)NCc2cccnc2-n2cccn2)CC1=O (centres unmarked)	9.459%	-	17.71%
CC(=O)N1CCSCC1c1ccc(C)o1 (centres unmarked)	6.761%	-5.698%	0.2398%
CC1=N[C@@]2(CC[C@@H]3CN(C(=O)NCC(C)C)C[C@@H]32)C(=O)N1CC(C)C	-	-	10.1%
O=C(Nc1cnn(-c2ccccc2Cl)c1)N[C@@H]1C=C[C@H](CO)C1	3.53%	52.75%	12.23%
CCNc1cc2c(nn1)CCN(C(=O)C1COc3ccccc3O1)C2 (centres unmarked)	18.8%	11.02%	16.43%
CC(C)(C)CC(=O)NCCn1ccc(-c2ccncc2)n1	-32.35%	19.66%	12.36%
CC(=O)N1CCCC1c1nc(CN(C)C(=O)C(C)C)cc(N(C)C)n1 (centres unmarked)	14.35%	52.18%	13.52%
COCCOc1cccc(C(=O)N2CCCC(n3ccnc3)C2)c1 (centres unmarked)	-15.52%	14.47%	19.44%
CNCC(=O)N1CC(c2cc(Nc3nc(C)cs3)nc(C)n2)C1	-	-	21.36%
Cc1noc(-c2ccc(Oc3cccc(CN4CCCC4)c3F)nc2)n1	-12.09%	-42.61%	3.581%
CCSc1cncc(N2CCC(NC(=O)C3CCCCC3)CC2)n1	20.4%	-	9.409%
CCc1csc(C2CCCN(C(=O)c3cnn(CC)c3)C2)n1 (centres unmarked)	-28.91%	1.975%	4.93%
O=C(O)C(F)(F)F.O=C(O)C(F)(F)F.[H][C@@]12C[C@@H](C(=O)NC)N(C)[C@]1([H])CN(Cc1ccco1)C2	-19.75%	19.51%	-
O=C(O)c1cnc(N2CCC(O)CC2)nc1COc1ccc(F)cc1	12.05%	33.76%	11.67%
COc1cc(C)nc(N2CCN(C(C)c3nc(C)no3)CC2)n1 (centres unmarked)	21.04%	22.02%	12.32%
COCCn1c(=O)n(Cc2ccccc2C)c2cc(C(=O)O)ccc21	-15.55%	9.722%	11.38%
COCC(=O)N1CCCC1c1nc(O)cc(C(C)C)n1 (centres unmarked)	-0.8912%	-38.62%	5.145%
O=C(O)C(F)(F)F.O=C(O)C(F)(F)F.[H][C@@]12CN(Cc3nccn3C)C[C@]1([H])OCCN2Cc1c(C)noc1C	-6.105%	-	-
CN(Cc1ccco1)C(=O)c1ccc(=O)n(C)c1	-4.975%	1.914%	10.68%
CN(C)CCn1nc(C2CCN(S(=O)(=O)N(C)C)C2)c2cccnc21 (centres unmarked)	-0.8163%	22.72%	15.41%
Cc1c(C(=O)N2CCCN(S(C)(=O)=O)CC2)cnn1C	11.2%	10.81%	10.79%
Cc1ccc2c(c1)C(NC1CC1)CC21CCNCC1.Cl (centres unmarked)	-15.52%	10.78%	-
O=C1CC(C(=O)O)C2(CCN(C(=O)NCc3ccc(Cl)cc3)CC2)N1 (centres unmarked)	8.556%	-	10.43%
CN1CCCC(c2nccnc2-c2cccc(C(F)(F)F)c2)C1 (centres unmarked)	2.711%	32.41%	8.721%
COCc1noc(Cn2ncn3cccc3c2=O)n1	-16.01%	-	6.593%
O=C(c1ccncc1)N1CCN(C(=O)c2coc3ccccc23)CC1	-1.069%	25.93%	16.55%
Cc1nc(OCC(=O)N2CCCC2)cc(-n2cccn2)n1	7.526%	-64.95%	7.627%
O=C1CCCC2=C1C(c1ccc(F)cc1F)Nc1nonc1N2 (centres unmarked)	-0.1848%	38.72%	19.41%
CS(=O)(=O)N1CCCCCC1C1CCN(c2ncccc2C#N)CC1 (centres unmarked)	-5.008%	-	8.163%
COc1cccc(C(=O)N2C[C@H]3CC[C@@H]2CN(Cc2cscn2)C3)c1	-	-	14.37%
O=C(Cc1n[nH]c(-c2cncc(Br)c2)n1)NCc1ccncc1	5.623%	19.38%	8.517%
Cc1ncc(CC(=O)N2C[C@@H]3CC[C@H](C2)N(CC2CCC2)C3)c(=O)[nH]1	-	-	9.253%
C[C@@H]1CN(C2(C(=O)N(C)C)Cc3ccccc3C2)C[C@H](C)O1	-36.59%	-0.6662%	12.37%
O=C1CC(c2ccccc2C(F)(F)F)c2sc(N3CCOCC3)nc2N1 (centres unmarked)	8.938%	43.16%	20.96%
CC(C)(C)c1nc(CNC2CCCN(c3cccnn3)C2)no1 (centres unmarked)	53.11%	-	24.84%
Cn1cc(CN2CC[C@@H]3[C@@H](CCC(=O)N3CCC3=CCCCC3)C2)cn1	-	-	13.5%
CCN1CCCCC1C(=O)N1CCc2onc(-c3ccc(Cl)cc3)c2C1 (centres unmarked)	-7.425%	14.94%	19.22%
COc1c(C2CCCN2Cc2cc(C)no2)c(C)nn1C (centres unmarked)	21.55%	20.22%	16.19%
COc1cccc(-c2nccnc2C2CCN(C(C)=O)CC2)c1	-22.33%	6.726%	11.3%
Cc1ccc(CN2CCOC3(COCCN(C(C)C)C3)C2)o1 (centres unmarked)	-	-	10.99%
Cc1cc(CN(C)C(=O)NC2CCCN(c3ncccn3)C2)no1 (centres unmarked)	3.453%	-	16.33%
CC1CN(C)CCN1C(=O)COc1cccc(Oc2ccccn2)c1 (centres unmarked)	-2.152%	-14.39%	2.88%
O=C(Nc1ccccn1)C1CC(=O)N(Cc2ccccn2)C1 (centres unmarked)	-5.39%	-13.92%	7.746%
CCN(C(=O)Cc1ccc(NCc2ncc[nH]2)cc1)c1ccccc1	-7.641%	52.94%	21.55%
c1cnc(N2CCN(CCn3ccnc3-c3ccncc3)CC2)nc1	4.821%	-30.9%	0.5115%
Cc1nsc(NC(=O)NC2CCCOC2)n1 (centres unmarked)	-16.68%	-18.95%	5.389%
CN1CCN(C[C@@H]2CN(C(=O)c3ccccc3C#N)C[C@@H]2CO)CC1	-9.436%	0.4681%	3.704%
COCCNC(=O)NCc1ccc(OC(C)C)c(F)c1	16.19%	30.02%	11.02%
O=C(O)C(F)(F)F.c1c2c(nn1CC1CCOCC1)C(CNC1CCOCC1)OCC2 (centres unmarked)	-22.26%	-8.216%	-
CCC(C)CS(=O)(=O)NC(=O)C1CC1 (centres unmarked)	19.93%	23.18%	12.03%
CC1c2ncc(CN3CCN(C)CC3)n2CCN1Cc1ccc(F)cc1.O=C(O)C(F)(F)F.O=C(O)C(F)(F)F.O=C(O)C(F)(F)F (centres unmarked)	-20.37%	-	-
O=C1CNc2ncnc(Nc3cnn(Cc4cccc(F)c4)c3)c2N1	15.38%	-12.15%	20.43%
Cc1nnc(SCCCNC(=O)c2ccc3c(c2)OCO3)s1	1.995%	-	4.348%
Cc1cc(C2CCCN2c2ncc(C(N)=O)cc2Cl)no1 (centres unmarked)	16.29%	13.61%	11.59%
CCS(=O)(=O)N(C)C(=O)c1cc(C)n(-c2cccc(OC)c2)c1C	3.137%	25.59%	11.74%
[H][C@@]12CCCCN(CC(N)=O)[C@]1([H])CN(C(=O)c1ccccc1OC)C2	10.57%	2.42%	-
O=c1oc(-c2ccc(F)cc2)nn1CCc1ccccn1	-10.53%	-4.567%	3.01%
O=C(c1ccco1)N1CCO[C@@H]2CN(c3ccccn3)CC[C@@H]2C1	-	-	13.49%
N#Cc1ccccc1N1CCCN(C(=O)CCc2nccs2)CC1	6.897%	-8.217%	7.981%
COCC1CC2(CCN(C(=O)c3occc3C)CC2)CN1C(C)C (centres unmarked)	-	-	1.987%
CSC1(CNC(=O)c2ccn(-c3ccccc3F)n2)CCOCC1	-59.11%	5.511%	-0.2688%
CC(C)N(C)[C@@H]1CCN(Cc2nccs2)[C@H]1Cc1ccncc1.O=C(O)C(F)(F)F.O=C(O)C(F)(F)F.O=C(O)C(F)(F)F	6.034%	18.52%	-
c1cnc(N2CCOCC3(CCCN(CC4CC4)C3)C2)cn1 (centres unmarked)	-	-	17.99%

9 of the entries, repeated:

{"structure": "CS(=O)(=O)N1CCCCCC1C1CCN(c2ncccc2C#N)CC1", "stereo": "centres unmarked", "Mtb heat-shock": -5.008, "LdMetRS": 8.163}
{"structure": "O=C1CNc2ncnc(Nc3cnn(Cc4cccc(F)c4)c3)c2N1", "Mtb heat-shock": 15.38, "Mtb growth Cornell": -12.15, "LdMetRS": 20.43}
{"structure": "CN(Cc1ccco1)C(=O)c1ccc(=O)n(C)c1", "Mtb heat-shock": -4.975, "Mtb growth Cornell": 1.914, "LdMetRS": 10.68}
{"structure": "Cc1cc(C2CCCN2c2ncc(C(N)=O)cc2Cl)no1", "stereo": "centres unmarked", "Mtb heat-shock": 16.29, "Mtb growth Cornell": 13.61, "LdMetRS": 11.59}
{"structure": "O=C1CC(c2ccccc2C(F)(F)F)c2sc(N3CCOCC3)nc2N1", "stereo": "centres unmarked", "Mtb heat-shock": 8.938, "Mtb growth Cornell": 43.16, "LdMetRS": 20.96}
{"structure": "Cc1ncc(CC(=O)N2C[C@@H]3CC[C@H](C2)N(CC2CCC2)C3)c(=O)[nH]1", "LdMetRS": 9.253}
{"structure": "Cc1nc(OCC(=O)N2CCCC2)cc(-n2cccn2)n1", "Mtb heat-shock": 7.526, "Mtb growth Cornell": -64.95, "LdMetRS": 7.627}
{"structure": "C[C@@H]1CN(C2(C(=O)N(C)C)Cc3ccccc3C2)C[C@H](C)O1", "Mtb heat-shock": -36.59, "Mtb growth Cornell": -0.6662, "LdMetRS": 12.37}
{"structure": "Cn1cc(CN2CC[C@@H]3[C@@H](CCC(=O)N3CCC3=CCCCC3)C2)cn1", "LdMetRS": 13.5}

Source: ChEMBL document CHEMBL3988442, “University of Dundee, Small-Polar-MMV Screening Library” (2021).